PubChem BioAssay AID1159595 | NIAID, 2016

Test: 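How silencing each gene alters a Tnf reporter after TLR2 stimulation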 (primary screen)
Cell system: mouse RAW264.7 macrophage reporter cells
Reagent: single siRNA against mouse genes
Timing: assayed 48 to 72 hours after siRNA transfection; ligand applied for 16 hours
Challenge: Pam3CSK4 (TLR2 ligand) for 16 hours before fixation; dose not given
Read-out: 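High-content imaging of Tnf promoter-driven nuclear mCherry in cells given Pam3CSK4 for 16 h, 48–72 h after transfection; value is the replicate mean of plate-normalised background-corrected robust z-scores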
Reading the numbers: Tnf reporter z-score (replicate mean): higher = stronger Tnf promoter reporter signal than negative control wells
Rule for the call: 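Calls apply to single siRNAs, not genes: activity graded at absolute z of 1, 1.5, 2 and 2.5, and active means averaged z at or beyond ±1.5, i.e. activity score 50 or above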
Calls: active = strong change (up or down); inactive = little change
The deposit covers 756 reagents; this is an unselected part. In the full data, 115 (15%) got an active call. 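Active calls cover both lowered and raised reporter signal; each score refers to one siRNA rather than a whole gene.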 Reagents against one gene are numbered here. The record does not give: the amount of reagent.

Peli1 (pellino 1) #1 — Tnf reporter z-score (replicate mean) = 1.01; activity call = inactive
Peli1 (pellino 1) #2 — Tnf reporter z-score (replicate mean) = 0.271; activity call = inactive
Peli1 (pellino 1) #3 — Tnf reporter z-score (replicate mean) = 0.402; activity call = inactive
Peli1 (pellino 1) #4 — Tnf reporter z-score (replicate mean) = 1.89; activity call = active
Peli1 (pellino 1) #5 — Tnf reporter z-score (replicate mean) = -0.313; activity call = inactive
Peli1 (pellino 1) #6 — Tnf reporter z-score (replicate mean) = -1.15; activity call = inactive
Ikbkg (inhibitor of kappaB kinase gamma) #1 — Tnf reporter z-score (replicate mean) = 0.418; activity call = inactive
Ikbkg (inhibitor of kappaB kinase gamma) #2 — Tnf reporter z-score (replicate mean) = -1.51; activity call = active
Ikbkg (inhibitor of kappaB kinase gamma) #3 — Tnf reporter z-score (replicate mean) = -0.764; activity call = inactive
Ikbkg (inhibitor of kappaB kinase gamma) #4 — Tnf reporter z-score (replicate mean) = -2.32; activity call = active
Ikbkg (inhibitor of kappaB kinase gamma) #5 — Tnf reporter z-score (replicate mean) = -0.709; activity call = inactive
Ikbkg (inhibitor of kappaB kinase gamma) #6 — Tnf reporter z-score (replicate mean) = -0.456; activity call = inactive
Nfkbib #1 — Tnf reporter z-score (replicate mean) = -1.07; activity call = inactive
Nfkbib #2 — Tnf reporter z-score (replicate mean) = -0.184; activity call = inactive
Nfkbib #3 — Tnf reporter z-score (replicate mean) = 1.74; activity call = active
Nfkbib #4 — Tnf reporter z-score (replicate mean) = -0.732; activity call = inactive
Nfkbib #5 — Tnf reporter z-score (replicate mean) = -2.69; activity call = active
Nfkbib #6 — Tnf reporter z-score (replicate mean) = 0.129; activity call = inactive
Tirap #1 — Tnf reporter z-score (replicate mean) = -2.05; activity call = active
Tirap #2 — Tnf reporter z-score (replicate mean) = -1.14; activity call = inactive
Tirap #3 — Tnf reporter z-score (replicate mean) = -1.13; activity call = inactive
Tirap #4 — Tnf reporter z-score (replicate mean) = -1.8; activity call = active
Tirap #5 — Tnf reporter z-score (replicate mean) = 0.166; activity call = inactive
Tirap #6 — Tnf reporter z-score (replicate mean) = -2.49; activity call = active
Ifnar2 (interferon (alpha and beta) receptor 2) #1 — Tnf reporter z-score (replicate mean) = -1.14; activity call = inactive
Ifnar2 (interferon (alpha and beta) receptor 2) #2 — Tnf reporter z-score (replicate mean) = -0.485; activity call = inactive
Ifnar2 (interferon (alpha and beta) receptor 2) #3 — Tnf reporter z-score (replicate mean) = -0.099; activity call = inactive
Ifnar2 (interferon (alpha and beta) receptor 2) #4 — Tnf reporter z-score (replicate mean) = 0.219; activity call = inactive
Ifnar2 (interferon (alpha and beta) receptor 2) #5 — Tnf reporter z-score (replicate mean) = -0.029; activity call = inactive
Ifnar2 (interferon (alpha and beta) receptor 2) #6 — Tnf reporter z-score (replicate mean) = -1.22; activity call = inactive
Rela (Rela proto-oncogene, NFKB subunit) #1 — Tnf reporter z-score (replicate mean) = -0.894; activity call = inactive
Rela (Rela proto-oncogene, NFKB subunit) #2 — Tnf reporter z-score (replicate mean) = 0.275; activity call = inactive
Rela (Rela proto-oncogene, NFKB subunit) #3 — Tnf reporter z-score (replicate mean) = -1.28; activity call = inactive
Rela (Rela proto-oncogene, NFKB subunit) #4 — Tnf reporter z-score (replicate mean) = -2.23; activity call = active
Rela (Rela proto-oncogene, NFKB subunit) #5 — Tnf reporter z-score (replicate mean) = -1.13; activity call = inactive
Rela (Rela proto-oncogene, NFKB subunit) #6 — Tnf reporter z-score (replicate mean) = -1.42; activity call = inactive
Akt1 (Akt serine/threonine kinase 1) #1 — Tnf reporter z-score (replicate mean) = 0.0242; activity call = inactive
Akt1 (Akt serine/threonine kinase 1) #2 — Tnf reporter z-score (replicate mean) = -1.18; activity call = inactive
Akt1 (Akt serine/threonine kinase 1) #3 — Tnf reporter z-score (replicate mean) = 0.205; activity call = inactive
Akt1 (Akt serine/threonine kinase 1) #4 — Tnf reporter z-score (replicate mean) = 0.113; activity call = inactive
Akt1 (Akt serine/threonine kinase 1) #5 — Tnf reporter z-score (replicate mean) = -0.78; activity call = inactive
Akt1 (Akt serine/threonine kinase 1) #6 — Tnf reporter z-score (replicate mean) = -0.571; activity call = inactive
Itgam (integrin alpha M) #1 — Tnf reporter z-score (replicate mean) = -1.29; activity call = inactive
Itgam (integrin alpha M) #2 — Tnf reporter z-score (replicate mean) = -0.762; activity call = inactive
Itgam (integrin alpha M) #3 — Tnf reporter z-score (replicate mean) = 0.0279; activity call = inactive
Itgam (integrin alpha M) #4 — Tnf reporter z-score (replicate mean) = 0.291; activity call = inactive
Itgam (integrin alpha M) #5 — Tnf reporter z-score (replicate mean) = -0.266; activity call = inactive
Itgam (integrin alpha M) #6 — Tnf reporter z-score (replicate mean) = -0.466; activity call = inactive
Pik3r2 (phosphoinositide-3-kinase regulatory subunit 2) #1 — Tnf reporter z-score (replicate mean) = -0.837; activity call = inactive
Pik3r2 (phosphoinositide-3-kinase regulatory subunit 2) #2 — Tnf reporter z-score (replicate mean) = -0.66; activity call = inactive
Pik3r2 (phosphoinositide-3-kinase regulatory subunit 2) #3 — Tnf reporter z-score (replicate mean) = -0.593; activity call = inactive
Pik3r2 (phosphoinositide-3-kinase regulatory subunit 2) #4 — Tnf reporter z-score (replicate mean) = 0.879; activity call = inactive
Pik3r2 (phosphoinositide-3-kinase regulatory subunit 2) #5 — Tnf reporter z-score (replicate mean) = 0.75; activity call = inactive
Pik3r2 (phosphoinositide-3-kinase regulatory subunit 2) #6 — Tnf reporter z-score (replicate mean) = -0.613; activity call = inactive
Irak3 (interleukin-1 receptor-associated kinase 3) #1 — Tnf reporter z-score (replicate mean) = -0.61; activity call = inactive
Irak3 (interleukin-1 receptor-associated kinase 3) #2 — Tnf reporter z-score (replicate mean) = -1.46; activity call = inactive
Irak3 (interleukin-1 receptor-associated kinase 3) #3 — Tnf reporter z-score (replicate mean) = 0.573; activity call = inactive
Irak3 (interleukin-1 receptor-associated kinase 3) #4 — Tnf reporter z-score (replicate mean) = -0.107; activity call = inactive
Irak3 (interleukin-1 receptor-associated kinase 3) #5 — Tnf reporter z-score (replicate mean) = -0.18; activity call = inactive
Irak3 (interleukin-1 receptor-associated kinase 3) #6 — Tnf reporter z-score (replicate mean) = -1.22; activity call = inactive

Hits, of those listed so far:
Peli1 (pellino 1) #4 — Tnf reporter z-score (replicate mean) = 1.89; activity call = active
Ikbkg (inhibitor of kappaB kinase gamma) #2 — Tnf reporter z-score (replicate mean) = -1.51; activity call = active
Ikbkg (inhibitor of kappaB kinase gamma) #4 — Tnf reporter z-score (replicate mean) = -2.32; activity call = active
Nfkbib #3 — Tnf reporter z-score (replicate mean) = 1.74; activity call = active
Nfkbib #5 — Tnf reporter z-score (replicate mean) = -2.69; activity call = active
Tirap #1 — Tnf reporter z-score (replicate mean) = -2.05; activity call = active
Tirap #4 — Tnf reporter z-score (replicate mean) = -1.8; activity call = active
Tirap #6 — Tnf reporter z-score (replicate mean) = -2.49; activity call = active
Rela (Rela proto-oncogene, NFKB subunit) #4 — Tnf reporter z-score (replicate mean) = -2.23; activity call = active
